Data as given in PubChem BioAssay AID504774 (Drosophila RNAi Screening Center, 2011).
In all, the deposit lists about 23,000 reagents; below is an unselected part of those with a known target gene and a result. 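Values are quantile-normalised luminescence on an arbitrary scale; higher means more cells surviving MMS.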 The numbers tell different reagents against one gene apart.

- Assay: 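Fly genes whose loss alters survival after alkylation damage to DNA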 (primary screen)
- System: Drosophila Kc167 cells
- Reagents: long dsRNA against Drosophila genes, about 0.25 µg dsRNA per well
- Timing: about 6 days: 3 days knock-down, then 3 days with or without MMS
- Treatment: methyl methanesulphonate 0.004% (w/v) for 3 days after knock-down
- Measured: 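ATP-dependent luminescence as a measure of live cells in MMS-exposed wells, quantile normalised within each plate, with replicate values also given as a mean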
- Reading the numbers: mean viability with MMS and viability with MMS: higher = more surviving cells after MMS

no.	gene knocked down	dsRNA no.	mean viability with MMS	viability with MMS, replicate 1	viability with MMS, replicate 2
1	Cpr47Ea (Cuticular protein 47Ea)	1	3.54e6	3.93e6	3.97e6
2	CG11550	1	3.75e6	4.26e6	4.19e6
3	jet (jetlag)	1	3.40e6	3.91e6	3.67e6
4	Lrt (Leucine-rich tendon-specific protein)	1	3.64e6	4.10e6	4.10e6
5	fwe (flower)	1	3.65e6	4.01e6	4.26e6
6	fwe (flower)	2	3.65e6	4.07e6	4.18e6
7	fwe (flower)	3	3.32e6	3.89e6	3.76e6
8	CG6333	1	3.59e6	4.14e6	3.99e6
9	EbpII (Ejaculatory bulb protein II)	1	3.65e6	4.24e6	4.17e6
10	EbpII (Ejaculatory bulb protein II)	2	3.56e6	3.97e6	4.09e6
11	ssp6 (short spindle 6)	1	3.36e6	3.75e6	3.82e6
12	ssp6 (short spindle 6)	2	3.57e6	4.20e6	3.89e6
13	Bka (Bekka)	1	3.39e6	3.85e6	3.78e6
14	Or47b (Odorant receptor 47b)	1	3.69e6	4.20e6	4.29e6
15	CG15142	1	3.43e6	3.85e6	3.95e6
16	Vps37B (Vacuolar protein sorting 37B)	1	3.50e6	4.04e6	3.87e6
17	CG4324	1	3.50e6	3.89e6	4.04e6
18	Cpr97Ea (Cuticular protein 97Ea)	1	3.70e6	4.23e6	4.12e6
19	PNPase (Polynucleotide phosphorylase)	1	3.57e6	4.06e6	4.04e6
20	CG8173	1	3.55e6	4.09e6	3.96e6
21	CG17404	1	3.63e6	3.97e6	4.06e6
22	RasGAP1 (Ras GTPase activating protein 1)	1	3.77e6	4.23e6	4.22e6
23	CG12506	1	3.37e6	3.79e6	3.78e6
24	PDZ-GEF (PDZ domain-containing guanine nucleotide exchange factor)	1	3.51e6	3.88e6	4.08e6
25	otk (off-track)	1	3.59e6	4.03e6	3.96e6
26	Mob4 (MOB kinase activator 4)	1	3.38e6	3.67e6	3.51e6
27	Bgb	1	3.56e6	4.04e6	4.04e6
28	Klp31E (Kinesin-like protein at 31E)	1	3.61e6	4.36e6	3.85e6
29	Cyp28a5 (Cytochrome P450 28a5)	1	3.62e6	4.24e6	4.02e6
30	CG15219	1	3.71e6	4.13e6	4.22e6
31	CG12645	1	3.60e6	4.08e6	4.06e6
32	CG10345	1	3.64e6	4.16e6	4.07e6
33	syd (sunday driver)	1	3.54e6	4.02e6	4.00e6
34	CG33777	1	3.47e6	4.00e6	3.85e6
35	run (runt)	1	3.73e6	4.02e6	4.49e6
36	run (runt)	2	3.64e6	4.16e6	4.08e6
37	osp (outspread)	1	3.61e6	3.95e6	4.20e6
38	osp (outspread)	2	3.44e6	3.80e6	3.95e6
39	CG4537	1	3.63e6	4.36e6	3.87e6
40	CG13481	1	3.54e6	4.10e6	3.94e6
41	CG7255	1	3.68e6	4.20e6	4.11e6
42	DIP-epsilon (Dpr-interacting protein epsilon)	1	3.44e6	3.92e6	3.93e6
43	DIP-epsilon (Dpr-interacting protein epsilon)	2	3.20e6	3.43e6	3.61e6
44	CG7536	1	3.73e6	4.49e6	4.01e6
45	CG7668	1	3.66e6	4.20e6	4.06e6
46	CG32112	1	3.62e6	4.16e6	4.00e6

5 neighbouring records from above:
no.	gene knocked down	dsRNA no.	mean viability with MMS	viability with MMS, replicate 1	viability with MMS, replicate 2
39	CG4537	1	3.63e6	4.36e6	3.87e6
40	CG13481	1	3.54e6	4.10e6	3.94e6
41	CG7255	1	3.68e6	4.20e6	4.11e6
42	DIP-epsilon (Dpr-interacting protein epsilon)	1	3.44e6	3.92e6	3.93e6
43	DIP-epsilon (Dpr-interacting protein epsilon)	2	3.20e6	3.43e6	3.61e6
